Values from PubChem BioAssay AID652243 (Drosophila RNAi Screening Center, 2013).
In all, the deposit lists about 24,000 reagents; shown is a random part of those that have a named target and a result. Of all reagents, 246 (1%) were called active. 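Plates not normalised; calls are printed but the firefly/Renilla ratio behind them is not deposited; fold cut for lowering reported inconsistently.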 The raw values are shown without normalisation. A plus sign joins genes that one reagent is predicted to hit. The record does not give: the amount of reagent.

Purpose: 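Fly genes required for human androgen receptor driven transcription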 (primary screen)
Cell system: Drosophila S2R+ cells
Knock-down reagent: long dsRNA against Drosophila genes
Duration: 72 h (48 h, then 24 h hormone)
Challenge: synthetic androgen R1881 at 10 nM for 24 h
Read-out: 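Firefly light from an androgen-responsive reporter and Renilla control light per well, raw and unnormalised, for each of two replicates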
Scale: firefly reporter light: higher = more light from androgen-responsive reporter; Renilla control light: higher = more constitutive control signal (cell number, transfection)
Hit rule: 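Hit when the log firefly-to-Renilla ratio dropped or increased by a fixed fold versus the mean of GFP or LacZ controls across duplicate plates; lowering cut given as 1.5 and as 3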
Calls: active = hit: reporter lowered or raised; inactive = no hit

The opening 3 entries as a preview:
| target gene | amplicon | firefly reporter light, replicate 1 | firefly reporter light, replicate 2 | Renilla control light, replicate 1 | Renilla control light, replicate 2 | call |
| --- | --- | --- | --- | --- | --- | --- |
| Cyp4e2 | DRSC07371 | 1.30e6 | 5.88e5 | 1.77e6 | 7.40e5 | inactive |
| Idgf3 | DRSC03351 | 9.21e5 | 9.66e5 | 7.76e5 | 1.89e6 | inactive |
| CG15580 | DRSC12266 | 58260 | 82543 | 1.18e6 | 1.11e6 | inactive |

The listing, from the start:
| target gene | amplicon | firefly reporter light, replicate 1 | firefly reporter light, replicate 2 | Renilla control light, replicate 1 | Renilla control light, replicate 2 | call |
| --- | --- | --- | --- | --- | --- | --- |
| Cyp4e2 | DRSC07371 | 1.30e6 | 5.88e5 | 1.77e6 | 7.40e5 | inactive |
| Idgf3 | DRSC03351 | 9.21e5 | 9.66e5 | 7.76e5 | 1.89e6 | inactive |
| CG15580 | DRSC12266 | 58260 | 82543 | 1.18e6 | 1.11e6 | inactive |
| CG15580 | DRSC24180 | 6.77e5 | 5.04e5 | 7.80e5 | 6.60e5 | inactive |
| CG11044 | DRSC06026 | 65928 | 82835 | 1.30e6 | 1.31e6 | inactive |
| CG11044 | DRSC27143 | 2.38e5 | 2.38e5 | 6.17e5 | 3.93e5 | inactive |
| dpr17 | DRSC12885 | 77275 | 56129 | 20138 | 1.68e5 | inactive |
| dpr17 | DRSC14958 | 256 | 1804 | – | – | inactive |
| Dsp1 | DRSC23078 | 3.55e5 | 1.99e5 | 3.49e5 | 5.75e5 | inactive |
| Dsp1 | DRSC28760 | 6.10e5 | 5.26e5 | 1.32e6 | 1.55e6 | inactive |
| CG14892 | DRSC15014 | 1.13e5 | 98954 | 1.96e6 | 1.98e6 | inactive |
| Polr1A | DRSC07535 | 1.39e6 | 9.89e5 | 3.18e6 | 2.26e6 | inactive |
| CG17059 + Fsn | DRSC26666 | 2.27e5 | 2.49e5 | 6.53e5 | 8.16e5 | inactive |
| Muc68E | DRSC09146 | 4.18e5 | 6.28e5 | 1.57e6 | 2.19e6 | inactive |
| Muc68E | DRSC26478 | 2.35e5 | 3.44e5 | 5.43e5 | 5.24e5 | inactive |
| Ntl | DRSC03003 | 3.16e5 | 3.08e5 | 3.16e6 | 3.30e6 | inactive |
| Ntl | DRSC28007 | 5.20e5 | 3.75e5 | 2.08e6 | 1.38e6 | inactive |
| Alp12 | DRSC02515 | 2.20e5 | 2.48e5 | 1.85e6 | 2.25e6 | inactive |
| Alp12 | DRSC36850 | – | – | – | – | inactive |
| CG17600 | DRSC20640 | 1.63e5 | 84536 | 2.14e5 | 2.40e5 | inactive |
| CG17600 | DRSC22753 | 6.22e5 | 1.06e6 | 8.23e5 | 1.29e6 | inactive |
| CG17600 | DRSC27203 | 2.94e5 | 1.29e5 | 7.07e5 | 2.28e5 | inactive |
| Pgm1 | DRSC10490 | 35778 | 13936 | 2.61e5 | 1.99e5 | inactive |
| Pgm1 | DRSC28517 | 4.79e5 | 8.31e5 | 6.61e5 | 1.27e6 | inactive |
| CG15333 | DRSC18016 | 4.09e5 | 3.34e5 | 3.45e6 | 2.58e6 | inactive |
| CG15333 | DRSC18153 | 2.26e5 | 3.01e5 | 1.74e6 | 1.40e6 | inactive |
| bam | DRSC16907 | 1.82e5 | 2.17e5 | 2.27e6 | 2.54e6 | inactive |
| bam | DRSC39113 | 3.14e5 | 6.51e5 | 1.38e6 | 2.40e6 | inactive |
| Ssadh | DRSC15621 | 1.01e5 | 69336 | 7.70e5 | 7.23e5 | inactive |
| Ssadh | DRSC27782 | 7.36e5 | 5.91e5 | 9.40e5 | 9.78e5 | inactive |
| mIF2 | DRSC14510 | 2.22e5 | 2.10e5 | 2.10e6 | 2.47e6 | inactive |
| mIF2 | DRSC26368 | 3.17e5 | 4.31e5 | 5.43e5 | 5.69e5 | inactive |
| okr | DRSC00834 | 8.92e5 | 8.67e5 | 2.21e6 | 1.80e6 | inactive |
| okr | DRSC24838 | 3.97e5 | 4.25e5 | 3.47e5 | 4.33e5 | inactive |
| CG15258 | DRSC02478 | 1.40e5 | 1.31e5 | 1.54e6 | 1.70e6 | inactive |
| bgm | DRSC03495 | 1.05e6 | 1.19e6 | 1.48e6 | 1.58e6 | inactive |
| bgm | DRSC27103 | 4.86e5 | 3.95e5 | 9.26e5 | 6.82e5 | inactive |
| CG12689 | DRSC17879 | 2.80e5 | 3.99e5 | 2.67e6 | 2.61e6 | inactive |
| Orp8 | DRSC15110 | 3.02e5 | 4.32e5 | 2.48e6 | 3.17e6 | inactive |
| Orp8 | DRSC15712 | 66800 | 76986 | 6.46e5 | 5.09e5 | inactive |
| Orp8 | DRSC28849 | 4.36e5 | 5.22e5 | 1.32e6 | 1.48e6 | inactive |
| hebe | DRSC05192 | 3.15e5 | 1.63e5 | 2.03e5 | 2.19e5 | inactive |
| hebe | DRSC06605 | 5.25e5 | 3.25e5 | 4.65e6 | 3.81e6 | inactive |
| hebe | DRSC21614 | 9.42e5 | 1.10e6 | 2.34e6 | 2.46e6 | inactive |
| hebe | DRSC24505 | 1.18e6 | 8.54e5 | 6.74e5 | 5.91e5 | inactive |
| axed | DRSC08833 | 1.60e5 | 1.07e5 | 3.01e5 | 1.48e5 | inactive |
| axed | DRSC10982 | 92885 | 74349 | 1.73e6 | 9.97e5 | inactive |
| E(var)3-9 | DRSC23242 | 5.15e5 | 7.09e5 | 1.44e6 | 1.85e6 | inactive |
| E(var)3-9 | DRSC29480 | 4.12e5 | 4.89e5 | 1.10e6 | 1.10e6 | inactive |
| GatB | DRSC15807 | 1.10e5 | 1.99e5 | 2.23e6 | 2.46e6 | inactive |
| GatB | DRSC27887 | 7.98e5 | 3.63e5 | 1.61e6 | 1.08e6 | inactive |
| CG7778 | DRSC03067 | 5.98e5 | 1.15e6 | 1.85e6 | 1.70e6 | inactive |
| CG7778 | DRSC27313 | 1.94e5 | 3.32e5 | 6.81e5 | 7.96e5 | inactive |
| Spn27A | DRSC03608 | 89912 | 2.14e5 | 9.71e5 | 1.62e6 | inactive |
| CG18171 | DRSC08524 | 36284 | 84560 | 7.94e5 | 8.72e5 | inactive |
| CG18171 | DRSC26270 | 2.62e5 | 3.82e5 | 2.86e5 | 5.22e5 | inactive |
| CR32511 | DRSC20697 | 6.05e5 | 6.93e5 | 3.49e6 | 3.48e6 | inactive |
| Rop | DRSC08693 | 1.43e6 | 5.44e5 | 1.21e6 | 9.69e5 | inactive |
| Rop | DRSC26024 | 3.17e5 | 2.26e5 | 8.23e5 | 6.18e5 | inactive |
